Some of these results come from one statement about several compounds together.
Target: T1, GPR4 (Homo sapiens, UniProt P46093)
T1 construct: were used to generate full length GPR4, which was digested with EcoRI and Xba I and cloned into the pBs3HA vector; expressed in transfected cells
Experiment: Cell migration in modified Boyden chamber, GPR4-ires-GFP vs GFP Swiss 3T3 cells
Assay type: cell-based
Experimental: Chemotaxis was measured in a modified Boyden chamber assay. Briefly, different lipids were added to the lower chambers. GPR4-ires-GFP- and GFP-Swiss 3T3 cells were serum starved for 4 h, trypsinized, and seeded in the upper chambers of Boyden-transwell plates (Corning Inc., Corning, N.Y.). The chambers were incubated for 6 to 8 h. The number of cells that migrated to the lower face of the membrane was counted in 4 random fields. Data are represented as the average ±SD of three independent experiments. For the chemokinetic assay, the same concentrations of lipids were added to both the upper and lower chambers. For Rho inhibition studies, C3-exoenxyme was transiently transfected into Swiss 3T3 cells and cell migration assays were performed 48 hours later.

Protein sequences, listed by entry. Tags and fused reporters are not part of them. Lines headed by an entry give the natural chain unless they say otherwise; changes in a name come on top.
UniProt P46093: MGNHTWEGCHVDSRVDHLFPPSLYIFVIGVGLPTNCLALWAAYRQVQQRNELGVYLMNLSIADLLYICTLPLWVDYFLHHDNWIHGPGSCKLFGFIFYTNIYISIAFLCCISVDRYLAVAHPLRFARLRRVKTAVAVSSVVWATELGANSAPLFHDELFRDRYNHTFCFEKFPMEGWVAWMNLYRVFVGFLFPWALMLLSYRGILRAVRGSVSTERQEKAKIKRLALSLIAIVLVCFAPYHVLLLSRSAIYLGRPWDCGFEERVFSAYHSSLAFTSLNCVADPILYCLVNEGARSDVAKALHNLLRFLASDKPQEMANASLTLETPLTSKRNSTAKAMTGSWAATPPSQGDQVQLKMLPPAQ

Substance: lysophosphatidylcholine [LPC]
- concentration range effective at inducing cell migration: 1 to 100 nM

Source: patent US20020107197A1, “Ligands for G protein coupled receptors and methods of using them” (priority 2000, published 2002)
